No constants are given. Whether binding was seen depends on the method and setting. In cells and extracts the contact can be indirect. A yes stands for co-enrichment or nearness to the bait. Other partners may have been found. For some assays here: A no says only that the protein was not detected with the bait.
How the values were obtained:
[1] = target: β-catenin (human (endogenous in corneal epithelium)) (UniProt P35222); test: affinity purification with mass spectrometry; endogenous β-catenin co-IP from pooled control corneal epithelium lysates (RIPA buffer); SDS-PAGE, in-gel trypsin digestion, MALDI-TOF, Mascot; proteins found in the IgG control subtracted
[2] = target: β-catenin (human (endogenous in corneal epithelium)) (UniProt P35222); test: affinity purification with mass spectrometry; endogenous β-catenin co-IP from pooled mild KC corneal epithelium lysates (RIPA buffer); SDS-PAGE, in-gel trypsin digestion, MALDI-TOF, Mascot; proteins found in the IgG control subtracted

The chains behind the UniProt entries cited, without tags or fusion partners. Residues count along the entry.
UniProt P35222: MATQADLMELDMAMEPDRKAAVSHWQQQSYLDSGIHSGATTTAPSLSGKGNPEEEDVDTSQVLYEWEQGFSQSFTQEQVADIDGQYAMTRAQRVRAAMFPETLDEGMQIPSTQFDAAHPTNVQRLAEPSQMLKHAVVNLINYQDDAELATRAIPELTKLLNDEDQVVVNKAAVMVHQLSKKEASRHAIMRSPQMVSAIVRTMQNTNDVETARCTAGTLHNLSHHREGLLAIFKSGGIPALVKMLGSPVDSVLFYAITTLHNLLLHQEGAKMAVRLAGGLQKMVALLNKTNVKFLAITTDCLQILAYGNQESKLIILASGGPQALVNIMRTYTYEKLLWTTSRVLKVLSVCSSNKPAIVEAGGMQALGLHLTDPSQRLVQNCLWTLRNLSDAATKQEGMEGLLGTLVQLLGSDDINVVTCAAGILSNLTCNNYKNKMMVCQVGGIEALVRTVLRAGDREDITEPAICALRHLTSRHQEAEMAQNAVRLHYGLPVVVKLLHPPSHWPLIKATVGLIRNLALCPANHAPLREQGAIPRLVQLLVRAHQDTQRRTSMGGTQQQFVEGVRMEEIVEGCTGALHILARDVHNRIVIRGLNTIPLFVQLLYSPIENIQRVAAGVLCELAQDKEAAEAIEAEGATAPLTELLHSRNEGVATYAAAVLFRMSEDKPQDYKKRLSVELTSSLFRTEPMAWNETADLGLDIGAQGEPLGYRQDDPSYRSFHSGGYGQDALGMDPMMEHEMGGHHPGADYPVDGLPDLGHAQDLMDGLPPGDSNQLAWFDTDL
UniProt P17948, residues 27-1338: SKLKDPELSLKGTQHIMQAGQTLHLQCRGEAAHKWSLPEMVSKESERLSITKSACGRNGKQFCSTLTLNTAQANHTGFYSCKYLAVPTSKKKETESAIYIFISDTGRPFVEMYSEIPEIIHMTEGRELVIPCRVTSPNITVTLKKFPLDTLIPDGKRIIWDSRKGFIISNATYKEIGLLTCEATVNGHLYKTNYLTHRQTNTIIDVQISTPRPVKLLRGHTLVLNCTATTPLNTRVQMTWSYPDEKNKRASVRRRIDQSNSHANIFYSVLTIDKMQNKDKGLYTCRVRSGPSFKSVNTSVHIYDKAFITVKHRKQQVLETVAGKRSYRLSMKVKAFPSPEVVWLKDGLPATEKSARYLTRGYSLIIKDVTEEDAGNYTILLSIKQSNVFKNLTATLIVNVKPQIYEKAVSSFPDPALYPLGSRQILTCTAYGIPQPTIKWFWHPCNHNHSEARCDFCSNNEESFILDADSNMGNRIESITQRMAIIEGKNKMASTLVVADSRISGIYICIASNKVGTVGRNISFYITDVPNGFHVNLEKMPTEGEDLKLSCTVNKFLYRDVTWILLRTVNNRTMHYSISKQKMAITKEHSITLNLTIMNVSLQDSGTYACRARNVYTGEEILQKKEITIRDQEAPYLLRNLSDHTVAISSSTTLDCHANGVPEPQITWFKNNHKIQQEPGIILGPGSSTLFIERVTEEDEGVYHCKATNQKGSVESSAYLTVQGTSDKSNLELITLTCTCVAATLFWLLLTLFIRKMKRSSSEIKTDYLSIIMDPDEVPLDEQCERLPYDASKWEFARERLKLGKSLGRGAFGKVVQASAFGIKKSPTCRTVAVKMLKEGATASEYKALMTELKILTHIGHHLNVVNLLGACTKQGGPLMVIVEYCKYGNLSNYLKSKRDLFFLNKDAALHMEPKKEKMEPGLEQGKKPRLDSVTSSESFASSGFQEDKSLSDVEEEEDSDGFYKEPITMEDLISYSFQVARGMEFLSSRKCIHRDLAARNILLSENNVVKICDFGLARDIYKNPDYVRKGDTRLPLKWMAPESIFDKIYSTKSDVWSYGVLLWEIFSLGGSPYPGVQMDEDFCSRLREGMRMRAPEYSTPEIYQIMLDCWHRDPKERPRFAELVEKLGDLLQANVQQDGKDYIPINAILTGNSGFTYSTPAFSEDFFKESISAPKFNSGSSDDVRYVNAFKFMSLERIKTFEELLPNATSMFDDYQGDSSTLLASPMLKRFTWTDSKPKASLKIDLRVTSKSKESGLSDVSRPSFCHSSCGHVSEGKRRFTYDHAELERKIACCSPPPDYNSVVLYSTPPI
UniProt P24821, residues 23-2201: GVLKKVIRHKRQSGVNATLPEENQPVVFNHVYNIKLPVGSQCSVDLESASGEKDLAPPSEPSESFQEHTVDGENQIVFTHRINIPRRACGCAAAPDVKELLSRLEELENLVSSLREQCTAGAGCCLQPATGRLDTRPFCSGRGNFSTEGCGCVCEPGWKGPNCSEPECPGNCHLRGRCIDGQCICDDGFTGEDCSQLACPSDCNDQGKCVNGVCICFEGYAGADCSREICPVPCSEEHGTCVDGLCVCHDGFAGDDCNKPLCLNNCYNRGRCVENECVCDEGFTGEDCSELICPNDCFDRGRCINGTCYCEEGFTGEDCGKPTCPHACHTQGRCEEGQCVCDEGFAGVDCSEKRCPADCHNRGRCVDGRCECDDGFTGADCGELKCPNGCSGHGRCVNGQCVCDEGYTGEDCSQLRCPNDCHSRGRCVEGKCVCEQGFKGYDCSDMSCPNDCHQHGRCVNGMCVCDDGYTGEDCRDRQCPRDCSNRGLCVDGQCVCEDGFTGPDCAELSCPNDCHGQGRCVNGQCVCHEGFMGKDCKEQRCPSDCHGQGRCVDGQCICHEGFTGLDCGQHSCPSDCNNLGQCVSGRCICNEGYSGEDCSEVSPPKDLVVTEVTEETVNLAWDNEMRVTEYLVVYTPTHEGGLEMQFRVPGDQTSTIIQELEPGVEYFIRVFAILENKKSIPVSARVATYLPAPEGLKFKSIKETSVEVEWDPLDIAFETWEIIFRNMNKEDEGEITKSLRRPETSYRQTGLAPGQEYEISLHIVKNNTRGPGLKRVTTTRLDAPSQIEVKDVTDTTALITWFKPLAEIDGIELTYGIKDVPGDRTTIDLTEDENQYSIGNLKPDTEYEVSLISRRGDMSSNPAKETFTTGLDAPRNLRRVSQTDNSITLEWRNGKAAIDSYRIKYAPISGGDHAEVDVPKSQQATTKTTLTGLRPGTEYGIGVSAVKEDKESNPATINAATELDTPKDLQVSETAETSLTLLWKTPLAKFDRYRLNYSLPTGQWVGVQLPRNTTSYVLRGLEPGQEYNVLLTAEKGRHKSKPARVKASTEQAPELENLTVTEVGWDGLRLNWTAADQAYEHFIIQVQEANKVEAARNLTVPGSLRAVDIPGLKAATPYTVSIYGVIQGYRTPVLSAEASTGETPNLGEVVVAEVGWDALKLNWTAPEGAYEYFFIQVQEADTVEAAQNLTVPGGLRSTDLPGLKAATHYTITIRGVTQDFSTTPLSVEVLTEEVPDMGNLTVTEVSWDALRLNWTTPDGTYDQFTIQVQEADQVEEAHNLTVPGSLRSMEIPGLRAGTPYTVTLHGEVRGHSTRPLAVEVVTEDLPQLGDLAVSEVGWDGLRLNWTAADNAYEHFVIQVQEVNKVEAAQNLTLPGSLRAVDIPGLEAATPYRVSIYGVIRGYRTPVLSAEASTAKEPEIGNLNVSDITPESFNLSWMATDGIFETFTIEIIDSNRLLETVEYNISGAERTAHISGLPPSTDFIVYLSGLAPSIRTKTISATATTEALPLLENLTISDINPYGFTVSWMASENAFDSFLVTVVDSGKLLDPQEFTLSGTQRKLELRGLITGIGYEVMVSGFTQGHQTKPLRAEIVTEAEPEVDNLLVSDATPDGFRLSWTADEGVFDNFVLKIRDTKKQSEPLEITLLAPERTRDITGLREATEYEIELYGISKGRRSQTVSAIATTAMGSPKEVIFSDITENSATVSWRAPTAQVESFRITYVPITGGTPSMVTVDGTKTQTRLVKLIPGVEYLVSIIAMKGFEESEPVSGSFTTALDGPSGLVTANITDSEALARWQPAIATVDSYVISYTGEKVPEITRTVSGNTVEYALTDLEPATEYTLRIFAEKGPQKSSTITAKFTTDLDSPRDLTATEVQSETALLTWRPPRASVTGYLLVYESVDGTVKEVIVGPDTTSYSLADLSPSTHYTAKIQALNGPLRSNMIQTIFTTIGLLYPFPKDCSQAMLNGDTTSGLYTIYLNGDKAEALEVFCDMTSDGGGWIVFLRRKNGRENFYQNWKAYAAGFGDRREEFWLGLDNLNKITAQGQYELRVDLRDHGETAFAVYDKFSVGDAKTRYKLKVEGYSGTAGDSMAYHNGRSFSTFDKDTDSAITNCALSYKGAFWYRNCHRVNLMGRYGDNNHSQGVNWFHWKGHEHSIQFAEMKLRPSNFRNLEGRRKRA
UniProt P48431: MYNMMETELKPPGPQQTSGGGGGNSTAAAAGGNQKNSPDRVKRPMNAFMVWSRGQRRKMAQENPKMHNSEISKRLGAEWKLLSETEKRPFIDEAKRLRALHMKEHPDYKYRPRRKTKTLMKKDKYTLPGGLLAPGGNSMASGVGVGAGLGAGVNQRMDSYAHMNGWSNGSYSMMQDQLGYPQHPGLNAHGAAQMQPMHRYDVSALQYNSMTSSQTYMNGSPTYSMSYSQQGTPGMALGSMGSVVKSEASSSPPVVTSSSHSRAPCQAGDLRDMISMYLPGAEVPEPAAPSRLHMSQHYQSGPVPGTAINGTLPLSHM

Molecule: Vascular Endothelial growth factor receptor 1 (from UniProt P17948 27-1338)
- binding [1]: binds
- binding [2]: no binding (only in mild KC epithelium)

Molecule: Tenascin C (from UniProt P24821 23-2201)
- binding [1]: binds
- binding [2]: binds

Molecule: SOX-2 (from UniProt P48431 1-317)
- binding [1]: binds
- binding [2]: no binding (only in mild KC epithelium)

B1: Tetkin4 (protein, UniProt Q8WW24 1-435)
chain: MAQTVPPCELPCKEYDVARNTGAYTSSGLATASFRTSKYLLEEWFQNCYARYHQAFADRDQSERQRHESQQLATETQALAQRTQQDSTRTVGERLQDTHSWKSELQREMEALAAETNLLLAQKQRLERALDATEVPFSITTDNLQCRERREHPNLVRDHVETELLKEAELIRNIQELLKRTIMQAVSQIRLNREHKETCEMDWSDKMEAYNIDETCGRHHSQSTEVQAHPYSTTFQESASTPETRAKFTQDNLCRAQRERLASANLRVLVDCILRDTSEDLRLQCDAVNLAFGRRCEELEDARYKLHHHLHKTLREITDQEHNVAALKQAIKDKEAPLHVAQTRLYLRSHRPNMELCRDAAQFRLLSEVEELNMSLTALREKLLEAEQSLRNLEDIHMSLEKDIAAMTNSLFIDRQKCMAHRTRYPTILQLAGYQ
- binding [1]: binds

B2: AH receptor-interacting protein (protein, UniProt O00170 1-330)
chain: MADIIARLREDGIQKRVIQEGRGELPDFQDGTKATFHYRTLHSDDEGTVLDDSRARGKPMELIIGKKFKLPVWETIVCTMREGEIAQFLCDIKHVVLYPLVAKSLRNIAVGKDPLEGQRHCCGVAQMREHSSLGHADLDALQQNPQPLIFHMEMLKVESPGTYQQDPWAMTDEEKAKAVPLIHQEGNRLYREGHVKEAAAKYYDAIACLKNLQMKEQPGSPEWIQLDQQITPLLLNYCQCKLVVEEYYEVLDHCSSILNKYDDNVKAYFKRGKAHAAVWNAQEAQADFAKVLELDPALAPVVSRELRALEARIRQKDEEDKARFRGIFSH
- binding [1]: binds

From article PMC7721701
